Experimental data from patent US10159667B2, “Composition containing a DPP-IV inhibitor for preventing or treating renal diseases” (DONG-A ST CO., LTD, priority 2013, dated 2018).

System: db/db mice
Test: Weight, food intake, water intake, fasting blood glucose, urine output, HbA1c and blood pressure in db/db mice
Type: in vivo
Method: 6-week old mice were used. db/m mice were set as the non-diabetic control group (7 for each stage, n=28), and divided db/db mice into the diabetic group (7 for each stage, n=28) and DA1229 administration group (n=8). 0.3% (W/W, 300 mg/kg/day) of DA1229, a DPP-IV inhibitor, was mixed with feed and provided to the DA1229 administration group while only feed was provided to the diabetic group. Weight, food intake, water intake, fasting blood glucose, urine output, hemoglobin A1c value (HbA1c) and blood pressure (i.e. systolic blood pressure, SBP) of the non-diabetic control group (db/m control group) and the diabetic group (db/db) were measured at week 0, 4, 8 and 12 of administration; and that of the DA1229 administration group were measured at week 12. HbA1c was measured by using the DCA 2000+ (Bayer Healthcare, Wuppertal, Germany) Analyzer.

[1] = DA1229 0.3% W/W in feed (300 mg/kg/day), wk 12, mean ± SEM
[2] = DA1229 administered for 12 weeks

**Q.** How did the “Daily Food Intake” value [1] turn out when CC(C)(C)OC[C@@H]1C(=O)NCCN1C(=O)C[C@H](N)Cc1cc(F)c(F)cc1F [DA1229, (R)-4-{(R)-3-amino-4-(2,4,5-trifluorophenyl)butanoyl}-3-(t-butoxymethyl)piperazin-2-one] was run?
**A.** 5.67 ± 0.08 g

**Q.** And the SBP [1]?
**A.** 124 ± 11 mmHg

**Q.** And the Weight [1]?
**A.** 57.2 ± 2.5 g

**Q.** What about the “food intake compared to the diabetic group” value [2] of the same compound?
**A.** no significant differences

**Q.** And the “weight compared to the diabetic group” value [2]?
**A.** no significant differences
